{"source": "paper doi:10.1101/2020.01.09.899237", "key": {"[1]": {"biological_target": "DnaJB8 C-terminal domain CTD_(170-232) (human) (UniProt Q8NHS0)", "test": "SEC-MALS"}, "[2]": {"biological_target": "FITC-labelled JD_(1-77) (human) (UniProt Q8NHS0)", "test": "fluorescence polarisation"}, "[3]": {"biological_target": "DnaJB8 C-terminal domain CTD_(170-232) (human) (UniProt Q8NHS0)", "test": "cross-linking"}}, "note": "No constants are given. Whether binding was seen depends on the method and setting. Some entries that bind do so weakly or less than the wild type.", "data": [{"binder": "DnaJB8 C-terminal domain CTD_(170-232) (domain or fragment, UniProt Q8NHS0 170-232) GGSSSGSSGFKSVMSSTEMINGHKVTTKRIVENGQERVEVEEDGQLKSVTVNGKEQLKWMDSK", "values": [{"measurement": "binding", "setting": "[1]", "value": "no binding (tested: 6.6 mg/mL)"}, {"measurement": "binding", "setting": "[2]", "value": "binds"}, {"measurement": "binding", "setting": "[3]", "value": "no binding (tested: 100μM)"}]}]}
